Values quoted from earlier work as cited in patent US20080085901A1, “Heteroaryl Substituted Quinolin-4-Ylamine Analogues” (Neurogen Corporation, priority 2005, published 2008).
Some of these results come from one statement about several compounds together. At least one structure is not confirmed: it was looked up by name or label, or the drawing left a doubt.

Amino acid sequences for entries named in this document (tags omitted).
UniProt Q8NER1, whole entry: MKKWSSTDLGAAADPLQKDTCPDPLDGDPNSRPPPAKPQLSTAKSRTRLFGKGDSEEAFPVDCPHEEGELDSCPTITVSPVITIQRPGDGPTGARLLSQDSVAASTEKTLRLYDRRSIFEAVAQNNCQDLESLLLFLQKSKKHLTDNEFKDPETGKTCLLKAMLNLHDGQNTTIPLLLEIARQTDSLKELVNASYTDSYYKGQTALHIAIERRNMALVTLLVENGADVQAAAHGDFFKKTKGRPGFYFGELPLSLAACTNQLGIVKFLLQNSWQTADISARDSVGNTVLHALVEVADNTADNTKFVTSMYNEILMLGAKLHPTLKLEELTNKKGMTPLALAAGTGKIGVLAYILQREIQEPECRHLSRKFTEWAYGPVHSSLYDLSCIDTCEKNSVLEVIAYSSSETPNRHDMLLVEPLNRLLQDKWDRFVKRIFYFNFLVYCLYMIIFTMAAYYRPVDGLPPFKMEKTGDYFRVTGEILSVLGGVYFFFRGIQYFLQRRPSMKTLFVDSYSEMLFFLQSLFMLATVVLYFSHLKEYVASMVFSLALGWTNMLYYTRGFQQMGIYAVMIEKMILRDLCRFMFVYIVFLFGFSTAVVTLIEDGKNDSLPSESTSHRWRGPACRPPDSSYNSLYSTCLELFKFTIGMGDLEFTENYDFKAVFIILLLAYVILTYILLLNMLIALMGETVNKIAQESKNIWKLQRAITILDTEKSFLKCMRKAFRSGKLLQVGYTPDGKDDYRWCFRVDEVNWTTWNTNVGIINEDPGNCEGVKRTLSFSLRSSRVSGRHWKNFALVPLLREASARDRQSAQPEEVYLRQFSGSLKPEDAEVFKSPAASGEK

Target: VR (Homo sapiens, UniProt Q8NER1)
Conditions: typical values, background statement; read-out: Ki values (bind to VR with no more than moderate affinity)

Cl.Cl.Cl.Cl.Cl.Cl.N.N.N.N.N.N.N.N.N.N.N.N.N.N.[O-2].[O-2].[Ru+3].[Ru+3].[Ru+4] [ruthenium red]
Ki: ≥ 140 µM
